Patent US20240190943A1 (HANGZHOU EXEGENESIS BIO, published 2024)
Results are given in words; binding and its absence hold for the method and conditions named. Some entries that bind do so weakly or less than the wild type. Where a sequence is shown, tags or fusion partners need not be part of it.

Chains of the proteins cited; added tags and fusions are not shown. Lines headed by an entry give the natural chain unless they say otherwise; changes in a name come on top. A line that says so, or that is headed by a name, gives the form on record, which may keep a tag or linker.
VEGF-A (P15692-4, form named): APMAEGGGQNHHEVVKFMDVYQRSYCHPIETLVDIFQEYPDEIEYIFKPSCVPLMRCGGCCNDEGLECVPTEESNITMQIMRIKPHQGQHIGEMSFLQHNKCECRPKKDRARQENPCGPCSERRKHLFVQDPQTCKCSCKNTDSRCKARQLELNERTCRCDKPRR

Experiments:
[1] = molecular target: T1, VEGF-A (UniProt P15692-4 27-191, limits assumed); test: rVEGF ELISA with equal conditioned medium from transient transfection
T1 construct: also called rVEGF; vascular endothelial growth factor

[2] = molecular target: T1, VEGF-A; test: ELISA, protein affinity purified from lysate of transfected HEK293T cells
[3] = molecular target: T1, VEGF-A; test: ELISA on VEGF-A, protein affinity-purified from transfected HEK293T cells; axis 'VEGF-A (19nM) Affinity OD450'
[4] = molecular target: T1, VEGF-A; test: VEGF-A binding ELISA (OD450), titration in pM of the product of plasmid-transfected cells
[5] = molecular target: T1, VEGF-A; test: rVEGF ELISA, shown relative to Exg102-04; left bar of each group

Measured: binding

B1: control polypeptide without an Ang BD (Fc fusion)
chain: SDTGRPFVEMYSEIPEIIHMTEGRELVIPCRVTSPNITVTLKKFPLDTLIPDGKRIIWDSRKGFIISNATYKEIGLLTCEATVNGHLYKTNYLTHRQTNTIIDVVLSPSHGIELSVGEKLVLNCTARTELNVGIDFNWEYPSSKHQHKKLVNRDLKTQSGSEMKKFLSTLTIDGVTRSDQGLYTCAASSGLMTKKNSTFVRVHE
notes: Signal peptide left out; also called EXG102-02; EXG102-03-1; not shown: Fc fragment of human IgG
binds: [1] | [2] | [3] | [4] | [5]

B2: Exg102-13 (other)
fusion polypeptide (Flt1 signal - VEGFR1 D2 - VEGFR2 D3 - Fc-Hinge - Ang BD): SDTGRPFVEMYSEIPEIIHMTEGRELVIPCRVTSPNITVTLKKFPLDTLIPDGKRIIWDSRKGFIISNATYKEIGLLTCEATVNGHLYKTNYLTHRQTNTIIDVVLSPSHGIELSVGEKLVLNCTARTELNVGIDFNWEYPSSKHQHKKLVNRDLKTQSGSEMKKFLSTLTIDGVTRSDQGLYTCAASSGLMTKKNSTFVRVHEKDKTHTCPPCPAPELLGGPSVGGGGGSGGGGGAQQEECEWDPWTCEHMGSGSATGGSGSTASSGSGSATHQEECEWDPWTCEHMLE
notes: Carries only the N-terminal 21 amino acids of the Fc (Fc-Hinger) and no full Fc; also called Exemplary polypeptide 4
binds: [5]
